No constants are given. Whether binding was seen depends on the method and setting. Binding seen in cells or lysates may run through a third protein.
Target: HA tagged PERK Δloop (UniProt Q9Z2B5)
Assay: co-IP

- binding: no binding
Substance: eIF2α (in HEK 293 cells) (from UniProt P05198 1-315)

Source: publication doi:10.1101/2022.07.24.501280
